Patent US20130244255A1, “ANTIBODIES DIRECTED TO GPNMB AND USES THEREOF” (priority 2006, published 2013)
Some entries share one result that the patent states for a list of compounds.

System: UACC-62
Assay: Anti-GPNMB antibody mediated indirect cell killing (saporin secondary conjugate, colony count)
Assay type: cell-based
Settings: antibody at 50 ng/mL with goat anti-human IgG-saporin 100 ng/well
Protocol: UACC-62, a GPNMB antigen expressing cell line, and TK10, a non-expressing cell line were plated onto flat bottom 96-well tissue culture plates (Becton Dickinson, Franklin Lakes, N.J., USA) at a density of 3000 cells per well. Once the cells reached ˜25% confluency, 100 ng/well of secondary antibody-toxin conjugate (goat anti-human IgG-saporin; Advanced Targeting Systems, San Diego, USA, HUM-ZAP; cat #IT-22) was added. Anti-GPNMB MAbs 2.10.2, 2.22.1, 1.15.1 or isotype control mAb (pK16.3) were added to each well at a final concentration of 10 or 50 μg/mL. An anti-EGFR monoclonal antibody (MS-269-PABX, NeoMarkers, Fremont, Calif., USA) was used as a positive primary antibody control. Chemotherapy reagent 5-FU at 600 uM was used as a positive reagent control. On day 5, the cells were trypsinized, transferred to 6-well tissue culture plates and incubated at 37° C. Plates were examined daily and between 8-10 days, all plates were Giemsa stained and colonies were counted.

CR011: fully human monoclonal antibody that specifically binds to GPNMB; VH SEQ ID NO: 20, VL SEQ ID NO: 29
killing of UACC-62 cells: over 70%
